Among the data in patent publication US20250222125A1, “Anti-FGFR2b Antibodies, Conjugates and Methods of Use” (BeiGene, Ltd., priority 2024, published 2025) are Rmax values, retold here.

B1: BGAm1823: parental murine anti-FGFR2b antibody; VH SEQ ID NO: 28, VL SEQ ID NO: 30 (antibody, V domains shown)
VH: EVQLQQSGAELVKPGASVKISCKASGYAFSIYWMNWVKQRPGKGLEWIGQIYPENGDTNYNGKFKGKATLTADKSSSTAYMHLSSLTSEDSAVYFCARGGFDYWGQGTTLTVSS
VL: NIVMTQSPASLSASVGETVTITCRASENIYSNLAWYQQKQGKSPQLLVYTATNLADGVPSRFSGSGSGTQFSLKINSLQPEDFGSYYCQHFYGILYTFGSGTRLEIK
modifications: Synthetic: VH AA; Synthetic: VL AA
B2: BGAh9179: humanized anti-FGFR2b IgG1 antibody from murine BGAm1371; VH SEQ ID NO: 21, VL SEQ ID NO: 22 (antibody, V domains shown)
VH: QVQLVQSGAEVKKPGASVKVSCKASGYTITDTYIHWVRQAPGQGLEWMGRIDPAEGNTMFASEFQGRVTMTADTSTSTVYMELSSLRSEDTAVYYCARSKIHYDYDEGFAYWGQGTLVTVSS
VL: DIVLTQSPDSLAVSLGERATINCRASESVDDYGYSFLHWYQQKPGQPPKLLIYRASNLESGVPDRFSGSGSGTDFTLTISSLQAEDVAVYYCQQSNQNPRTFGGGTKVEIK
modifications: Synthetic: VH AA; Synthetic: VL AA
B3: BGAh9239: humanized anti-FGFR2b IgG1 antibody from murine BGAm1823; VH SEQ ID NO: 9, VL SEQ ID NO: 10 (antibody, V domains shown)
VH: QVQLVQSGAEVKKPGSSVKVSCKASGYTFSIYWLNWVRQAPGQGLEWMGQIYPENADTNYSGKFKGRVTITADKSTSTAYMELSSLRSEDTAVYFCARGGFDYWGQGTLVTVSS
VL: DIQMTQSPSSLSASVGDRVTITCRASENIYSNLAWYQQKPGKAPKLLIYTATNLAEGVPSRFSGSGSGTDFTLTISSLQPEDFATYYCQHFYGILYTFGQGTRLEIK
modifications: Synthetic: VH AA; Synthetic: VL AA
B4: BGAm1371: parental murine anti-FGFR2b antibody (parental mouse clone); VH SEQ ID NO: 32, VL SEQ ID NO: 34 (antibody, V domains shown)
VH: QVQLKQSGAELVKPGASVKLSCTASGFNIKDTYIHWVKQRPEQGLEWIGRIDPANGNTMFASEFQGKATITAYTSSNTAYMQLSSLTSGDTAVYYCARSKIHYDYDEGFAYWGQGTLVTVSS
VL: NIVLTQSPPSLAVSLGQRATVSCRASESVDDYGYSFLHWYQQKPGQPPKLLIYRASNLESGIPARFSGSGSRTDFTLTINPVETDDVATYYCQQSNQNPRTFGGGTKLEIK
modifications: Synthetic: VH AA; Synthetic: VL AA

For this data set, the system named is Cyno FGFR2b. Briefly: SPR affinity determination, cyno FGFR2b (Example 9). In kind it is binding. The procedure:
For affinity determination, antibodies were captured by anti-human Fc antibodies, and used in the affinity assay based on surface plasmon resonance (SPR) technology. SPR signals were analyzed to calculate the association rates (ka) and dissociation rates (kd) by using the one-to-one Langmuir binding model (BIA Evaluation Software, GE Life Sciences). The equilibrium dissociation constant (KD) was calculated as the ratio of kd/ka. Rmax represents the maximal feasible SPR signal generated by an interaction between a ligand-analyte pair and is represented in response units (RU). BGAh9239 and BGA9179 show similar binding profiles to human FGFR2b and cyno FGFR2b, and are similar to their parental antibodies BGAm1823 and BGAm1371, respectively.
As for B1, the Rmax came to 97.5 RU.

In turn, B2 gave an Rmax of 40.8 RU.

In turn, B3 registered an Rmax of 88.7 RU.

Turning to B4, the Rmax is listed as 102.9 RU.
